Experimental data taken from patent publication US8475772B2 (E I du Pont de Nemours and Company, priority 2003, dated 2013).

Assay: peptide made by a vendor
Settings: for purity (crude or final not stated): whole synthesis

Row | Substance | purity (crude or final not stated) | crude LC-MS purity (late stage modification step) | step yield (late stage modification step)
1 | Fmoc-R(Pbf)T(tBu)N(Trt)AAD(OtBu)H(Trt)PAAVT(tBu)GGG | 95% purity | – | –
2 | RTNAADHPAAVT | 95% purity | – | –
3 | t-Boc-D21-peptide | – | 90% by weight | 80% yield

End groups of sequences in plain letters are not given here.
